1 molecule from patent US4025649A, “Acetic acid derivatives having pharmacological activity and compositions containing the same” (priority 1975, dated 1977) can be followed below.

A value given as a limit tells only on which side of the number the result lay.

One data set in a line: in vivo. Conditions: ip, mouse, intraperitoneal route, read-out: LDO, maximum tolerated dose (M.T.D.), highest dose which provokes no deaths. Here is the method: Acute toxicity was determined on the mouse. For this purpose, a dose of the compound to be tested was administered to batches of 5 mice, by intraperitoneal route, so that each batch received a higher dose than the preceding batch.

Data set [1] deals with γ-aminobutyric α-ketoglutaric transaminase (GABA T). The data set is described as follows: Inhibition of GABA T in vitro (coupled spectrophotometric test with GABASE). The data set is classed as biochemical, Pseudomonas fluorescens. Conditions: comparison of Ki with sodium di-n-propylacetate (0.8 m mol/ml). On the procedure: This test was undertaken "in vitro" in the absorption cell of a double-beam U.V. spectrophotometer.
The activity of GABA T was determined by coupling this enzyme with an excess of succinosemialdehyde dehydrogenase (NADP^+) so that the rate of formation of the succinosemialdehyde dehydrogenase coenzyme (NADPH) was limited by the activity of the GABA T. The coupling of the two reactions was as follows:
The activity of GABA T was measured by following the reduction rate (v) of NADP^+ which corresponds to the evolution of the optical density at 340 mμ on the spectrophotometer.
Determination of the activity rate of GABA T by the principle hereabove described can be effected with either limiting concentrations or a saturating concentration of one of the substrates, in the present case GABA, in each instance, in the presence of a saturating concentration of the second substrate namely α-ketoglutarate. Thus, it is possible to discover the activity rate of GABA T in relation to the concentration of GABA and in this way, to determine the affinity of GABA T for GABA. […]
This constant is expressed in units of concentration, in the present case, in m mol per ml and can be determined by plotting all the curves corresponding to 1/v = f (I) for a saturating concentration of GABA and for different limiting concentrations of GABA. […]

Regarding `CC(C)CC(=O)O` [Compound D, 3-methyl-butanoic acid], in the data set “in vivo”, the MTD is greater than 400 mg/kg. Further, the “activity as GABA T inhibitor compared with sodium di-n-propylacetate” value in data set [1] is “more active”.
